This assay can be described thus: qHTS Assay for Lipid Storage Modulators in Drosophila S3 Cells.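 For cell number change: cells counted by Cell Tracker Red CMTPX staining in the red channel.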 Conditions: BODIPY lipid droplet fluorescence, 18-24 h; for cell number change: measured here: cell count max response, cells fed with added oleic acid. The essentials:
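Drosophila S3 cells loaded with oleic acid (400 uM, as added) and compounds at several concentrations; lipid droplets imaged by 488-nm laser-scanning cytometry, 500–530 nm intensity and object ratio to cell channel. Percent activity normalized to 20 uM Triacsin C.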
Background: In qHTS, concentration-response curves come from the screen itself.

Where [1] appears, read: measured here: lipid fluorescence (Fed channel) AC50, cells fed with added oleic acid.
Where [2] appears, read: measured here: cell number channel AC50, cells fed with added oleic acid.

This is one part of the list. These are further read-outs of the screen, such as a control signal, another cell line or another target. No call is given for them. The list favours compounds with an active or inconclusive main result. The note in brackets gives the kind of curve behind each potency; many fits are weak.

With `COc1ccc(-c2csc(NC(=O)Cc3cc(OC)c(OC)c(OC)c3)n2)cc1OC`, the cell number change amounted to 24.3%. For the same compound, under setting [1], the AC50 was 11.6 µM [falling, single point].

`Cc1cc(C)c(OCC(=O)OCC(=O)N(C)C2CCS(=O)(=O)C2)c(C)c1` (centres undefined): the cell number change is -8.38%. Further, under setting [1], the half-maximal activity concentration (AC50) is 29.1 µM [rising, single point].

As for `CN(C)/C=C/C(=O)c1cnc(-c2ccccc2)s1`, the cell number change stood at 66.6%. Further, the AC50 under setting [2] was 29.1 µM [rising, single point]. For the same compound, the AC50 under setting [1] was 6.51 µM [falling, single point].

Take `NC(=O)C1CCN(C(=O)c2ccc(Cl)c(S(=O)(=O)NCc3ccco3)c2)CC1`: the cell number change is 0.871%. Further, the half-maximal activity concentration (AC50) under setting [2] was 0.13 µM [falling, full curve, poor fit]. For the same compound, the AC50 under setting [1] is 0.146 µM [falling, full curve].

As to `C=CCn1c(COc2ccccc2)nnc1SCc1ccc(C#N)cc1`, the cell number change was 4.58%. Further, under setting [1], the AC50 is 2.31 µM [rising, single point].

With `CN1CCN(c2nc3c(c(=O)[nH]c(=O)n3C)n2CC(N)=O)CC1`, the cell number change turned out to be 2.44%. For the same compound, the AC50 under setting [1] was 0.00517 µM [rising, full curve, poor fit].

`CC(C)c1[nH]nc2c1C(C1C=CCCC1)C(C#N)=C(N)O2` (centres undefined): the cell number change was -1.19%. Further, the AC50 under setting [2] was 1.64 µM [falling, partial curve, poor fit].

Turning to `CCCn1c(N)c(C(=O)COC(=O)c2cccc(S(=O)(=O)N3CCOCC3)c2)c(=O)[nH]c1=O`, the cell number change came out at 0.705%. The AC50 under setting [1] is 18.4 µM [falling, single point].

In the case of `O=C(CNC(=O)c1ccco1)N=Nc1c(O)[nH]c2ccc([N+](=O)[O-])cc12`, under setting [1], the AC50 was 0.82 µM [falling, full curve].

On to `O=C(Cn1cnc2ccccc2c1=O)OCC(=O)c1ccc2c(c1)OCCO2`, for which the cell number change was found to be 16.2%. Moreover, under setting [2], the concentration at half-maximal activity (AC50) was 1.46 µM [rising, full curve, poor fit]. Also, under setting [1], the concentration at half-maximal activity (AC50) is 0.461 µM [rising, full curve].

Regarding `O=C(CCSCc1ccc(Cl)cc1)NCc1cccs1`, the cell number change is -40.6%. In addition, under setting [2], the AC50 was 29.1 µM [falling, single point]. Moreover, the AC50 under setting [1] is 29.1 µM [falling, single point].

As for `CN(/N=C/c1cc(Cl)ccc1O)C1=NS(=O)(=O)c2ccccc21`, under setting [1], the concentration at half-maximal activity (AC50) is 29.1 µM [falling, single point].

As for `CN(C)CCCNC(=O)/C(=C/c1ccc(-c2ccc([N+](=O)[O-])cc2)o1)NC(=O)c1ccccc1`, the cell number change was -17.6%. The AC50 under setting [2] was 7.31 µM [falling, single point]. In addition, the AC50 under setting [1] is 29.1 µM [falling, single point].

Turning to `COc1nc(-c2ccccc2)cc(-c2ccc(OC)c(OC)c2)n1`, the cell number change was -23.4%.

`CCOc1ccc(-n2c(C)nc(O)c2N=Nc2ccccc2)cc1`: under setting [2], the AC50 was 3.66 µM [falling, single point].

Turning to `COc1ccc(-n2c(=O)c3c4c(sc3n(CC(N)=O)c2=O)CCCCC4)cc1`, the cell number change was -19%. Also, the AC50 under setting [2] is 1.64 µM [falling, full curve, poor fit]. Under setting [1], the concentration at half-maximal activity (AC50) was 29.1 µM [falling, single point].

With `Cc1ccccc1OCC(=O)Nc1ccccc1-c1ccccc1`, the cell number change is -23.6%. The half-maximal activity concentration (AC50) under setting [1] is 29.1 µM [falling, single point].

`COc1cccc(CC(=O)N2CCC(n3nccc3NC(=O)C3CCOC3)CC2)c1` (centres undefined): the cell number change stood at 20.8%. Under setting [1], the half-maximal activity concentration (AC50) is 7.94 µM [rising, partial curve, poor fit].

With `CCCc1ccc2oc(C(=O)N(Cc3ccncc3)CC3CCCO3)c(C)c2c1` (centres undefined), the cell number change amounted to 1.74%. Further, the AC50 under setting [2] was 1.84 µM [rising, partial curve].

For the compound `CC1(C)SC2c3ccccc3C(=O)N2[C@@H]1C(=O)O` (some centres undefined), the cell number change worked out at 3.6%. Further, under setting [2], the AC50 is 5.17 µM [rising, single point].

Regarding `Cc1cc2[nH]c(=O)c(=O)[nH]c2cc1S(=O)(=O)N1CCN(c2cccc(Cl)c2)CC1`, the cell number change was -23.9%. Also, the AC50 under setting [1] was 29.1 µM [falling, single point].

Turning to `Cc1ccc2nc(C)cc(N3CCOCC3)c2c1`, the cell number change was -32.1%. Further, under setting [2], the AC50 was 32.6 µM [falling, single point]. Also, under setting [1], the half-maximal activity concentration (AC50) was 6.51 µM [falling, single point].

Regarding `CNC(=S)NCc1ccc(OC)cc1`, the cell number change was -3.74%.

In the case of `COc1ccc2c(c1)c1nc3ccccc3nc1n2Cc1ccc(OC(C)C)c(OC)c1`, the cell number change is -26.4%.

Take `Cc1ccc(S(=O)(=O)N(C)C)cc1NC(=O)CN1c2cccc3cccc(c23)S1(=O)=O`: the cell number change is -24.6%. In addition, the half-maximal activity concentration (AC50) under setting [1] was 2.31 µM [falling, partial curve, poor fit].

Regarding `COCCN(C(=O)CNC(=O)c1ccco1)C(C(=O)NC1CCCC1)c1ccc(OC)c(OC)c1` (centres undefined), the concentration at half-maximal activity (AC50) under setting [1] was 29.1 µM [falling, single point].

Consider `O=S(=O)(NC1CCCCC1)c1ccc(S(=O)(=O)N2CCN3CCCC3C2)cc1` (centres undefined), for which the cell number change is 3.38%. Besides, under setting [1], the half-maximal activity concentration (AC50) was 0.651 µM [falling, single point].

Turning to `CC(C)(C)Nc1nc(SCC(=O)Nc2ccccc2Cl)nc(N2CCOCC2)n1`, the cell number change was -19.1%.

`Clc1ccc(OCc2nc(-c3ccncc3)no2)c(Br)c1`: the cell number change is 6.6%. Moreover, the half-maximal activity concentration (AC50) under setting [1] is 3.66 µM [rising, full curve].

Take `O=C(Nc1cc(S(=O)(=O)N2CCOCC2)ccc1N1CCCC1)c1ccc(Cl)cc1`: the cell number change is -54%. Besides, under setting [2], the AC50 was 20.6 µM [falling, partial curve]. Also, the AC50 under setting [1] was 6.51 µM [rising, single point].

As to `CNc1nc(N)c([N+](=O)[O-])c(Nc2cccc(Cl)c2)n1`, the cell number change was -10.6%. Further, the AC50 under setting [2] was 0.461 µM [falling, single point].

Consider `O=C(Nc1ncccc1O)c1ccc(Cl)c(S(=O)(=O)N2CCCCC2)c1`, for which, under setting [1], the concentration at half-maximal activity (AC50) is 29.1 µM [rising, single point].

In the case of `O=C(CCSc1nc(-c2ccco2)cc(C(F)(F)F)n1)NCc1cccs1`, the cell number change is -26.8%. Also, the AC50 under setting [1] is 20.6 µM [falling, single point].

As to `O=C(CCN1C(=O)COc2ccccc21)NCCCN1CCN(c2ccccc2F)CC1`, the cell number change is -16.8%. For the same compound, under setting [1], the half-maximal activity concentration (AC50) is 29.1 µM [falling, single point].

Take `CC(C)C(=O)Nc1ccc(Br)cc1Cl`: the cell number change stood at 29.2%. The concentration at half-maximal activity (AC50) under setting [1] was 3.55 µM [rising, single point].

With `Cc1ccc(-n2c(C)csc2=N)cc1`, the cell number change amounted to 73.4%. Moreover, the AC50 under setting [2] is 20.6 µM [rising, single point]. Further, the AC50 under setting [1] is 29.1 µM [rising, single point].

Regarding `CC(C)CNC(=O)/C=C/c1cccs1`, the cell number change came to 14%. The AC50 under setting [1] was 0.103 µM [rising, full curve, poor fit].

One may read the AC50 as the concentration giving half of the maximal activity seen. A high value points to activity only at high concentration.
